Test results as given in article PMC9234244.
Results are given in words; binding and its absence hold for the method and conditions named. Binding seen in cells or lysates may run through a third protein. Some entries that bind do so weakly or less than the wild type. For part of these data: Sequences can lack the tags named with a protein.

Protein sequences, listed by entry. Tags and fused reporters are not part of them. Residues count along the entry.
UniProt P36894, residues 24-532: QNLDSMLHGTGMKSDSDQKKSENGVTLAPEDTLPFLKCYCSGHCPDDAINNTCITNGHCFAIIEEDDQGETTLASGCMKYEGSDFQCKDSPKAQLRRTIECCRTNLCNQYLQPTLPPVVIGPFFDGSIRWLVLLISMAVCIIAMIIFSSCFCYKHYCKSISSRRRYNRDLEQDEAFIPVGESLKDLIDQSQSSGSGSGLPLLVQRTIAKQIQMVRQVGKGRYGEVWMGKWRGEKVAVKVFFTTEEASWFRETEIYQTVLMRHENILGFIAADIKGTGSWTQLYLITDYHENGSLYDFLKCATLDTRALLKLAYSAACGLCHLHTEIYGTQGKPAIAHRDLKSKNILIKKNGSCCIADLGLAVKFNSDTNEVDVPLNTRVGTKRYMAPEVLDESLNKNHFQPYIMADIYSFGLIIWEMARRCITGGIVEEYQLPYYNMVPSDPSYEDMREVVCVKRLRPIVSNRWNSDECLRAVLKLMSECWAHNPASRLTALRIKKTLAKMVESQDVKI
UniProt P56704, residues 19-352: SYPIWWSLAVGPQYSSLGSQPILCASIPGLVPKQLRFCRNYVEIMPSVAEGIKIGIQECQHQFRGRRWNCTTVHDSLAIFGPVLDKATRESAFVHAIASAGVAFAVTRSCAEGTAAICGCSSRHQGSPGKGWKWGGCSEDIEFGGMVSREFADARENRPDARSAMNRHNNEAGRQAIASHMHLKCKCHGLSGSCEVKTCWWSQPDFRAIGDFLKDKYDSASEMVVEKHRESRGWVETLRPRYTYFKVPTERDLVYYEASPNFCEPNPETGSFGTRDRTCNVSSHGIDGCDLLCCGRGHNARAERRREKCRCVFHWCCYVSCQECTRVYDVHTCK
UniProt O00744, residues 29-389: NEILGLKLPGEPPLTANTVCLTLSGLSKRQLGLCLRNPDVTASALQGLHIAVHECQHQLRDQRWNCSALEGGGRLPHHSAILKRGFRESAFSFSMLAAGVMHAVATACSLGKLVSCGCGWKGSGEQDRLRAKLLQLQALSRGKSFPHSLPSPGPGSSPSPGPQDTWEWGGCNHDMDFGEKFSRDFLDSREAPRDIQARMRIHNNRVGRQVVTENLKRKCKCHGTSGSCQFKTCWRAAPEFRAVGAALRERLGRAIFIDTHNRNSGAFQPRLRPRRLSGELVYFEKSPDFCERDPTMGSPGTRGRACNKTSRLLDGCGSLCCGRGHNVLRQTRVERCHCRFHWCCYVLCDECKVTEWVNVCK
UniProt Q9EQD0, residues 27-585: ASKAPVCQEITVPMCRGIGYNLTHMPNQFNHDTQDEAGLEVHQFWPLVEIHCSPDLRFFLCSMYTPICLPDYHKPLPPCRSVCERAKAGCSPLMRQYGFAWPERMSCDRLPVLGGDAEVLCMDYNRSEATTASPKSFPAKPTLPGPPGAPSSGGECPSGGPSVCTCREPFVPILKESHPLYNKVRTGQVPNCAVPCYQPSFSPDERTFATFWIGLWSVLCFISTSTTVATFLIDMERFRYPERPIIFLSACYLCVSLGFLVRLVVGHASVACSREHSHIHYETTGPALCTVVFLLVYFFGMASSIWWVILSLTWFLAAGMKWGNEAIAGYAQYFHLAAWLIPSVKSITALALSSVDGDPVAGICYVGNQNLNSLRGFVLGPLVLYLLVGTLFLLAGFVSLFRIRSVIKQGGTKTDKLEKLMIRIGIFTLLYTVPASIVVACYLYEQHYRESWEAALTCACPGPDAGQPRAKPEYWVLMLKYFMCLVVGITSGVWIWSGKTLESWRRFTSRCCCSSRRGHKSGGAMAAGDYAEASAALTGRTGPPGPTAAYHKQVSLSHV

T1: Wnt8b-V5 (UniProt Q93098)
T1 sequence: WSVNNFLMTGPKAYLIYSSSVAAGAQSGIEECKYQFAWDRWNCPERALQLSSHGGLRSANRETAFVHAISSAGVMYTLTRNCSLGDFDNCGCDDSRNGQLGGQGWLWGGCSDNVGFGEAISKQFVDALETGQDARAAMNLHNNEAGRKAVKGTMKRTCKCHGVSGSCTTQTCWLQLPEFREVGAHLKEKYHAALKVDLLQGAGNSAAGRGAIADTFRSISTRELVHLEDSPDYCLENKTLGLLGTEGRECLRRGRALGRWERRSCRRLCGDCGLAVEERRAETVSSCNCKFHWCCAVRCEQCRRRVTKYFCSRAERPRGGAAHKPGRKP

T2: FZD4 (Frizzled-4) (UniProt Q61088)
T2 sequence: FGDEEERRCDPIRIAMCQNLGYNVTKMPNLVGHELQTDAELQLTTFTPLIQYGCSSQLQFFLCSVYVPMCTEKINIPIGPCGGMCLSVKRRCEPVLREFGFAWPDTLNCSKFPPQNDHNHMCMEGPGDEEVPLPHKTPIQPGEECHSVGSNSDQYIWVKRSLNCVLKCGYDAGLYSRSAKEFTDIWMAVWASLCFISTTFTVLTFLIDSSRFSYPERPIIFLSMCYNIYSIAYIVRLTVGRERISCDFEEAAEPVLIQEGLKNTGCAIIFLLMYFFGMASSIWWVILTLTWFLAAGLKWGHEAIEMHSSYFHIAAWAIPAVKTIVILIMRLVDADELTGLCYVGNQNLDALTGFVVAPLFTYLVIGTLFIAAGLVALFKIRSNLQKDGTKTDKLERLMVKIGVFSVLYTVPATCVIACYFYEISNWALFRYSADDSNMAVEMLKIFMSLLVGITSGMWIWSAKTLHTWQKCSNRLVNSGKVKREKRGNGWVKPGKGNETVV

T3: Wnt9a-V5 (UniProt O14904)
T3 sequence: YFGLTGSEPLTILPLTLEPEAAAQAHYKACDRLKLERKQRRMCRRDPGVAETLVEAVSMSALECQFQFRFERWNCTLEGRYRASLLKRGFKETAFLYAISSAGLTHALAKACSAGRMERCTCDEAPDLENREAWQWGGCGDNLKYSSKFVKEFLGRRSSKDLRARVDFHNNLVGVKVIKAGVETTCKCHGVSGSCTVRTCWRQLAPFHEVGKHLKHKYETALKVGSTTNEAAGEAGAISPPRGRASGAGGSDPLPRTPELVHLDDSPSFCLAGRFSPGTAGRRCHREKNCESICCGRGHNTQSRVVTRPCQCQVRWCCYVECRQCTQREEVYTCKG

T4: Wnt2-V5 (UniProt P09544)
T4 sequence: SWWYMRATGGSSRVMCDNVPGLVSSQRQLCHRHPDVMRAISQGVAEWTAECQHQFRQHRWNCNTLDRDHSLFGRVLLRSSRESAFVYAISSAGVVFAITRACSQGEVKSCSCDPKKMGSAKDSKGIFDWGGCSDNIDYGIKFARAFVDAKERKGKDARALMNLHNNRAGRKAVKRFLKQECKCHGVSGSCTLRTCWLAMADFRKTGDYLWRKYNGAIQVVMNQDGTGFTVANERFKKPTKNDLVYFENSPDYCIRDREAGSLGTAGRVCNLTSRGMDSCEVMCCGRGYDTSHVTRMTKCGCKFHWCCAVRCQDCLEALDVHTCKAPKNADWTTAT

T5: SNAP-tagged FZD4 (SNAP-FZD4) (UniProt Q61088)
T5 sequence (chain, BG-PEG12-Biotin on the SNAP tag (cell surface labelling experiment only)): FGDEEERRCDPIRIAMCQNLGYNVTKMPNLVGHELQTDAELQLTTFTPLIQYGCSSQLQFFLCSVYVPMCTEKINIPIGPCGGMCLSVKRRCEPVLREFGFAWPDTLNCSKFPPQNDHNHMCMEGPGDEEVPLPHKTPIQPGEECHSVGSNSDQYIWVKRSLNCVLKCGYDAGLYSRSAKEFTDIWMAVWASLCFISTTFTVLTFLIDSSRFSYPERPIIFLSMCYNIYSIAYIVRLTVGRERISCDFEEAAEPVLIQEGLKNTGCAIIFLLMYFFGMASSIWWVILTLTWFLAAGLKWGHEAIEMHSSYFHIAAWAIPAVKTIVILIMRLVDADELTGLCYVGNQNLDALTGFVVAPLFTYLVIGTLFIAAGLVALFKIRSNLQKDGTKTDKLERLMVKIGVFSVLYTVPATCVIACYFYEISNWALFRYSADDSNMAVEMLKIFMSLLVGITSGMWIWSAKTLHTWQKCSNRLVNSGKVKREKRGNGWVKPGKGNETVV

T6: Wnt8a-V5 (UniProt Q9H1J5)
T6 sequence: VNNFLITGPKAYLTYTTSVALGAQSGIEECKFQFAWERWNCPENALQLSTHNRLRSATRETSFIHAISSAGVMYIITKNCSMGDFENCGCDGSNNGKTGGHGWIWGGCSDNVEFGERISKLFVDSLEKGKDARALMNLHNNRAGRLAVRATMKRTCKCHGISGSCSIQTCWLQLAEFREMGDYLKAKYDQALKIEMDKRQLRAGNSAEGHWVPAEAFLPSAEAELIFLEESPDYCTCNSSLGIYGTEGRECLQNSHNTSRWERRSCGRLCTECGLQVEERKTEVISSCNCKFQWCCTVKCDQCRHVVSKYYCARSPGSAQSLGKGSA


Tests used:
[1] = biological target: ALK3-HA (BMP type I receptor ALK3) (UniProt P36894); test: co-IP; HEK293T cells co-transfected; whole cell lysates incubated with the antibody at 4 °C overnight, then protein G or protein A beads 6 h at 4 °C; Western blotting
Wnt8b-V5 = biological target: T1, Wnt8b-V5; test: as above
Wnt3a-V5 [2] = biological target: Wnt3a-V5 (UniProt P56704); test: as above
FZD4 (Frizzled-4) = biological target: T2, FZD4 (Frizzled-4); test: as above
Wnt9a-V5 = biological target: T3, Wnt9a-V5; test: as above
Wnt10b-V5 [3] = biological target: Wnt10b-V5 (UniProt O00744); test: as above
Wnt2-V5 = biological target: T4, Wnt2-V5; test: as above
FZD5 (SNAP-Fzd5) = FZD5 (SNAP-Fzd5) (UniProt Q9EQD0); test: as above
[4] = biological target: T5, SNAP-tagged FZD4 (SNAP-FZD4); test: as above
Wnt8a-V5 = biological target: T6, Wnt8a-V5; test: as above
Wnt3a-V5 [5] = biological target: Wnt3a-V5 (UniProt P56704); test: co-IP; conditioned medium of co-transfected HEK293T cells immunoprecipitated with anti-HA or anti-V5; Western blotting
Wnt10b-V5 [6] = biological target: Wnt10b-V5 (UniProt O00744); test: as above

Row | binding [1] | binding (Wnt8b-V5) | binding (Wnt3a-V5 [2]) | binding (FZD4 (Frizzled-4)) | binding (Wnt9a-V5) | binding (Wnt10b-V5 [3]) | binding (Wnt2-V5) | binding (FZD5 (SNAP-Fzd5)) | binding [4] | binding (Wnt8a-V5) | binding (Wnt3a-V5 [5]) | binding (Wnt10b-V5 [6]) | Molecule
1 | no binding | – | – | – | – | – | – | – | – | – | – | – | Wnt3a-V5 (from UniProt P56704 19-352) (ligand)
2 | – | binds | binds | binds | binds | binds | binds | binds | binds | binds | binds | binds | FSTL1-HA (follistatin-like 1, HA-tagged) (protein, UniProt Q62356 19-306) EEEPRSKSKICANVFCGAGRECAVTEKGEPTCLCIEQCKPHKRPVCGSNGKTYLNHCELHRDACLTGSKIQVDYDGHCKEKKSASPSASPVVCYQANRDELRRRLIQWLEAEIIPDGWFSKGSNYSEILDKYFKSFDNGDSHLDSSEFLKFVEQNETAINITTYADQENNKLLRSLCVDALIELSDENADWKLSFQEFLKCLNPSFNPPEKKCALEDETYADGAETEVDCNRCVCSCGHWVCTAMTCDGKNQKGVQTHTEEEKTGYVQELQKHQGTAEKTKKVNTKEI
